The record followed here is patent US4055468A (priority 1974, dated 1977).

A short description of this data set: peptide synthesis.

HELM strings list residues between dots; [ac] is acetyl, [am] amide, other brackets name non-standard units.

For the setting “late stage modification step”, “PEPTIDE1{[2-Phenoxypropionyl].V.[Sta].A.[Sta]}$$$$V2.0” registered a step yield of 75%. The same measure, in the same setting: in the case of PEPTIDE1{[Bz].V.[Sta].A.[Sta]}$$$$V2.0 it was 32%; in that of “PEPTIDE1{[Isobutyryl].V.[Sta].A.[Sta]}$$$$V2.0”, 50%. Take “PEPTIDE1{[Palmitoyl].V.[Sta].A.[Sta]}$$$$V2.0”: the step yield (lipidation step) is listed as 78%.

In turn, “PEPTIDE1{[Phenoxyacetyl].V.[Sta].A.[Sta]}$$$$V2.0” showed a step yield (late stage modification step) of 44%. For the substance PEPTIDE1{[ac].V.[Sta].A.[Sta]}$$$$V2.0, the step yield is, setting by setting: (late stage modification step, run 1) 81%; (late stage modification step, run 2) 65%.
